## Assay results

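A panel of P. falciparum strains inside erythrocytes is exposed to compounds for three days, then a DNA-binding dye reports the amount of parasite DNA.
Each compound was titrated across a series from about 0.000037 to 29 µM.
The number is the fitted AC50, the concentration giving a half-maximal change in signal; a lower value means higher potency, whether the curve shows a decrease or an increase.
Calls follow the curve class and fit quality: every row here is inconclusive, covering signal-raising curves and weak, poorly fitted, partial or highest-dose-only inhibition curves.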

Values are in nM.
Every entry below has the call inconclusive.
These entries are mostly ones the record files as inconclusive; other results of the assay are not listed here.
A potency from a partial, single-point or poor curve is only a rough figure.

Compound: C=C1CC2C3C=C(C)C4=CC(=O)CCC4(C)C3CCC2(C)[C@@]1(OC(C)=O)C(C)=O (stereo partly shown)
tested on / at: CP305
potency (nM): 13459
curve: inhibitor, single point

Compound: C=C1CC2C3C=C(C)C4=CC(=O)CCC4(C)C3CCC2(C)[C@@]1(OC(C)=O)C(C)=O (stereo partly shown)
tested on / at: DIV30
potency (nM): 5358
curve: inhibitor, partial curve

Compound: C=C1CC2C3C=C(C)C4=CC(=O)CCC4(C)C3CCC2(C)[C@@]1(OC(C)=O)C(C)=O (stereo partly shown)
tested on / at: DIV14
potency (nM): 21331
curve: inhibitor, single point

Compound: C=C1CC2C3C=C(C)C4=CC(=O)CCC4(C)C3CCC2(C)[C@@]1(OC(C)=O)C(C)=O (stereo partly shown)
tested on / at: CP215
potency (nM): 13459
curve: inhibitor, single point

Compound: C=C1CC2C3C=C(C)C4=CC(=O)CCC4(C)C3CCC2(C)[C@@]1(OC(C)=O)C(C)=O (stereo partly shown)
tested on / at: PC26
potency (nM): 8492
curve: inhibitor, partial curve

Compound: C=C1CC2C3C=C(C)C4=CC(=O)CCC4(C)C3CCC2(C)[C@@]1(OC(C)=O)C(C)=O (stereo partly shown)
tested on / at: parasite line A
potency (nM): 10000
curve: inhibitor, single point

Compound: C=C1CC2C3C=C(C)C4=CC(=O)CCC4(C)C3CCC2(C)[C@@]1(OC(C)=O)C(C)=O (stereo partly shown)
tested on / at: CP194
potency (nM): 16944
curve: inhibitor, single point

Compound: C=C1CC2C3C=C(C)C4=CC(=O)CCC4(C)C3CCC2(C)[C@@]1(OC(C)=O)C(C)=O (stereo partly shown)
tested on / at: CP203
potency (nM): 15101
curve: inhibitor, partial curve

Compound: C=C1CC2C3C=C(C)C4=CC(=O)CCC4(C)C3CCC2(C)[C@@]1(OC(C)=O)C(C)=O (stereo partly shown)
tested on / at: GB4
potency (nM): 7569
curve: inhibitor, partial curve

Compound: C=C1CC2C3C=C(C)C4=CC(=O)CCC4(C)C3CCC2(C)[C@@]1(OC(C)=O)C(C)=O (stereo partly shown)
tested on / at: ATS189
potency (nM): 11220
curve: inhibitor, single point

Compound: C=C1CC2C3C=C(C)C4=CC(=O)CCC4(C)C3CCC2(C)[C@@]1(OC(C)=O)C(C)=O (stereo partly shown)
tested on / at: DIV17
potency (nM): 19011
curve: inhibitor, single point

Compound: C=C1CC2C3C=C(C)C4=CC(=O)CCC4(C)C3CCC2(C)[C@@]1(OC(C)=O)C(C)=O (stereo partly shown)
tested on / at: CP335
potency (nM): 19011
curve: inhibitor, single point

Compound: C=C1CC2C3C=C(C)C4=CC(=O)CCC4(C)C3CCC2(C)[C@@]1(OC(C)=O)C(C)=O (stereo partly shown)
tested on / at: CP286
potency (nM): 15848
curve: inhibitor, single point

Compound: C=C1CC2C3C=C(C)C4=CC(=O)CCC4(C)C3CCC2(C)[C@@]1(OC(C)=O)C(C)=O (stereo partly shown)
tested on / at: P93_24
potency (nM): 17782
curve: inhibitor, single point

Compound: C=C1CC2C3C=C(C)C4=CC(=O)CCC4(C)C3CCC2(C)[C@@]1(OC(C)=O)C(C)=O (stereo partly shown)
tested on / at: CP211
potency (nM): 16944
curve: inhibitor, single point

Compound: C=C1CC2C3C=C(C)C4=CC(=O)CCC4(C)C3CCC2(C)[C@@]1(OC(C)=O)C(C)=O (stereo partly shown)
tested on / at: CP260
potency (nM): 17782
curve: inhibitor, single point

Compound: C=C1CC2C3C=C(C)C4=CC(=O)CCC4(C)C3CCC2(C)[C@@]1(OC(C)=O)C(C)=O (stereo partly shown)
tested on / at: CP262
potency (nM): 15101
curve: inhibitor, single point

Compound: C=C1CC2C3C=C(C)C4=CC(=O)CCC4(C)C3CCC2(C)[C@@]1(OC(C)=O)C(C)=O (stereo partly shown)
tested on / at: TAB113
potency (nM): 17782
curve: inhibitor, single point

Compound: C=C1CC2C3C=C(C)C4=CC(=O)CCC4(C)C3CCC2(C)[C@@]1(OC(C)=O)C(C)=O (stereo partly shown)
tested on / at: AA1029
potency (nM): 11220
curve: inhibitor, single point

Compound: C=C1CC2C3C=C(C)C4=CC(=O)CCC4(C)C3CCC2(C)[C@@]1(OC(C)=O)C(C)=O (stereo partly shown)
tested on / at: ATS95
potency (nM): 15848
curve: inhibitor, single point

Compound: C=C1CC2C3C=C(C)C4=CC(=O)CCC4(C)C3CCC2(C)[C@@]1(OC(C)=O)C(C)=O (stereo partly shown)
tested on / at: CP297
potency (nM): 19011
curve: inhibitor, single point

Compound: C=C1CC2C3C=C(C)C4=CC(=O)CCC4(C)C3CCC2(C)[C@@]1(OC(C)=O)C(C)=O (stereo partly shown)
tested on / at: P94_40
potency (nM): 11220
curve: inhibitor, single point

Compound: C=C1CC2C3C=C(C)C4=CC(=O)CCC4(C)C3CCC2(C)[C@@]1(OC(C)=O)C(C)=O (stereo partly shown)
tested on / at: CP217
potency (nM): 11220
curve: inhibitor, single point

Compound: C=C1CC2C3C=C(C)C4=CC(=O)CCC4(C)C3CCC2(C)[C@@]1(OC(C)=O)C(C)=O (stereo partly shown)
tested on / at: CP268
potency (nM): 16944
curve: inhibitor, single point

Compound: CN(CCOc1ccc(NS(C)(=O)=O)cc1)CCc1ccc(NS(C)(=O)=O)cc1
tested on / at: CP297
potency (nM): 21331
curve: inhibitor, single point

Compound: CN(CCOc1ccc(NS(C)(=O)=O)cc1)CCc1ccc(NS(C)(=O)=O)cc1
tested on / at: CP215
potency (nM): 19011
curve: inhibitor, partial curve, poor fit

Compound: CN(CCOc1ccc(NS(C)(=O)=O)cc1)CCc1ccc(NS(C)(=O)=O)cc1
tested on / at: P93_24
potency (nM): 3548
curve: inhibitor, single point

Compound: CCN(CC)CCNC(=O)COc1ccc(Cl)cc1
tested on / at: CP247
potency (nM): 4467
curve: inhibitor, partial curve

Compound: CCN(CC)CCNC(=O)COc1ccc(Cl)cc1
tested on / at: AA1029
potency (nM): 11220
curve: inhibitor, single point

Compound: CCN(CC)CCNC(=O)COc1ccc(Cl)cc1
tested on / at: PC49
potency (nM): 10000
curve: inhibitor, partial curve

Compound: CCN(CC)CCNC(=O)COc1ccc(Cl)cc1
tested on / at: CP217
potency (nM): 7943
curve: inhibitor, partial curve

Compound: CCN(CC)CCNC(=O)COc1ccc(Cl)cc1
tested on / at: ATS189
potency (nM): 11220
curve: inhibitor, single point

Compound: CCN(CC)CCNC(=O)COc1ccc(Cl)cc1
tested on / at: P94_40
potency (nM): 10000
curve: inhibitor, single point

The first 2 entries again:

C=C1CC2C3C=C(C)C4=CC(=O)CCC4(C)C3CCC2(C)[C@@]1(OC(C)=O)C(C)=O (stereo partly shown) [CP305] gave potency 13459 nM (inhibitor, single point).
C=C1CC2C3C=C(C)C4=CC(=O)CCC4(C)C3CCC2(C)[C@@]1(OC(C)=O)C(C)=O (stereo partly shown) [DIV30] gave potency 5358 nM (inhibitor, partial curve).

Data taken from PubChem BioAssay AID504749, deposited by NCATS (2011).